Measured values as given in the supplement of paper PMC12889115.
Some of the results follow. Values are raw readings; no control value is given beside them.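 In the initial screen, polymyxin B was used at a concentration that permeabilizes Salmonella's outer membrane but not its inner membrane. Maximum growth was set by DMSO wells with or without polymyxin B. Since plates varied, data were ranked per plate, and compounds giving the lowest OD600 advanced as hits.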

System: Salmonella enterica serovar Typhimurium SL1344
Experiment: bacterial growth OD600 after 18 h with compound and polymyxin B; higher = more bacterial growth (less inhibition)
Conditions: 50 µM, Mueller-Hinton broth

Structure (SMILES) | bacterial growth OD600 (polymyxin B 0.75 µg/mL) | bacterial growth OD600 (polymyxin B 1 µg/mL)
CCC(=O)C1CCCN(Cc2cnc(S(=O)(=O)CC)n2CCc2ccccc2)C1 (stereo not given) | 0.769 | –
Cc1cccc(CN2CCCC(O)(CN3CCOCC3)C2=O)c1 (stereo not given) | – | 0.927
O=C(c1ccc(NCC2CC2)nc1)N1CCCN(C2CCCCC2)CC1 | 0.791 | –
CCOc1ccc2nc(N3CCCC3C(=O)NCC(C)(C)N3CCOCC3)nc(C)c2c1 (stereo not given) | 0.949 | –
COc1ccc(F)c(CC2(CCC(=O)N(CCO)Cc3ccccc3)CCC(=O)N2)c1 (stereo not given) | 0.859 | –
Cc1nonc1CN(C)C(=O)C1(N2CCCCC2)Cc2ccccc2C1 | – | 0.002
C[C@@H]1CN(C2(C(=O)NCCSc3ncn[nH]3)Cc3ccccc3C2)C[C@H](C)O1 | – | 1.2
CCOC(=O)C1(CC2CC2)CCN(Cc2cn(CC(N)=O)c3ccccc23)CC1 | 0.832 | –
O=C(N[C@H]1CCCCNC1=O)c1ccc(N2CCC(NCc3cccc(Cl)c3)CC2)cc1 | 0.784 | –
CCn1nc(C)c(CN2CCCC(C(=O)c3cc(C)c(OC)c(C)c3)C2)c1C (stereo not given) | – | 1.03
O=C(NC1CC(=O)N(Cc2cccc(F)c2)C1)C1CCCCCC1 (stereo not given) | – | 0.945
COc1ccc(CCN2CC(NC(=O)c3oc(C)cc3C)CC2=O)cc1 (stereo not given) | – | 0.868
Cc1ccccc1N1CCN(c2ncccc2CNC(=O)c2ncoc2C)CC1 | – | 0.03
O=C(NCCc1cnccn1)c1coc(COc2ccccc2)n1 | – | 0.948
COC(=O)c1cc(CNC(=O)[C@@H]2C[C@@H]3C=C[C@H]2C3)cc(NS(=O)(=O)c2ccc3c(c2)OCCO3)c1 | 0.883 | –
CSCCCNC(=O)c1cccc(OC2CCN(S(=O)(=O)N(C)C)CC2)c1 | – | 0.936
COCCC(=O)NC1CC(=O)N(Cc2cccc3ccccc23)C1 (stereo not given) | – | 0.952
CSc1ccccc1C(=O)NC(C)c1cnn(-c2ccccn2)c1C (stereo not given) | – | 1.23
COc1cc(-c2cnc3ccccc3c2)cc2c1OCCN(S(=O)(=O)c1cc(F)ccc1C)C2 | 0.755 | –
Cc1cccc(CN2CCc3[nH]nc(-c4ccc5c(c4)OCO5)c3C2)n1 | 0.951 | –

Shown field by field: 2 of the compounds above.
CCC(=O)C1CCCN(Cc2cnc(S(=O)(=O)CC)n2CCc2ccccc2)C1 (stereo not given)
  bacterial growth OD600 (polymyxin B 0.75 µg/mL): 0.769
Cc1ccccc1N1CCN(c2ncccc2CNC(=O)c2ncoc2C)CC1
  bacterial growth OD600 (polymyxin B 1 µg/mL): 0.03
